From paper PMC5432291
Results are given in words; binding and its absence hold for the method and conditions named. In cells and extracts the contact can be indirect. Some binding calls cover weakened binding; strength is not graded here.

The chains behind the UniProt entries cited, without tags or fusion partners. Where a name states a change or a piece, a line headed by the entry shows the natural chain unless it says otherwise.
UniProt P04792: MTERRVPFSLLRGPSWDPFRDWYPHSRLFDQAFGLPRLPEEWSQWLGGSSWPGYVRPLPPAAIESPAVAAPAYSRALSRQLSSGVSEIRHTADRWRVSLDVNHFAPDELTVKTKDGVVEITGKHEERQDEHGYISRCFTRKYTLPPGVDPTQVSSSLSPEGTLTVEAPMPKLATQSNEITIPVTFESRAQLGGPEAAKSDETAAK
UniProt Q9H9S0: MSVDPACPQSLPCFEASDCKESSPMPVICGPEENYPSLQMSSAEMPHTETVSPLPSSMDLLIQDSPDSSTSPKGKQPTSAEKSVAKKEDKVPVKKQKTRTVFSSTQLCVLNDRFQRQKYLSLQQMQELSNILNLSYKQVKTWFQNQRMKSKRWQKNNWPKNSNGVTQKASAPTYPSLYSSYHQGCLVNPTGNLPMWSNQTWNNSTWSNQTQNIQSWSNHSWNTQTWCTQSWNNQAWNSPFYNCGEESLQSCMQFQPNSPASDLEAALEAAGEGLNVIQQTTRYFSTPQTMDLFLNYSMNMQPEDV
UniProt P01106: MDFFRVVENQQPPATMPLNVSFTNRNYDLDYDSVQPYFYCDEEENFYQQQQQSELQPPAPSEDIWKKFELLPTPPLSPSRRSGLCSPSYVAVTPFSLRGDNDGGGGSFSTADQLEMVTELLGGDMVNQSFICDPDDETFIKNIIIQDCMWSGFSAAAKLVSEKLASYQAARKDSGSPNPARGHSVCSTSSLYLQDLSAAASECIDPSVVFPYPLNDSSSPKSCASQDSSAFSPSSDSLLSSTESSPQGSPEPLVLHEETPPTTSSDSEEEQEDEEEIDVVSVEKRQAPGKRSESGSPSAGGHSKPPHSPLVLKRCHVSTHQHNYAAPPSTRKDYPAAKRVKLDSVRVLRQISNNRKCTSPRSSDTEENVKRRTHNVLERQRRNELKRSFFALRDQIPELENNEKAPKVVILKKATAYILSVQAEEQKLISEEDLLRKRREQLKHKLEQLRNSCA
UniProt Q01860: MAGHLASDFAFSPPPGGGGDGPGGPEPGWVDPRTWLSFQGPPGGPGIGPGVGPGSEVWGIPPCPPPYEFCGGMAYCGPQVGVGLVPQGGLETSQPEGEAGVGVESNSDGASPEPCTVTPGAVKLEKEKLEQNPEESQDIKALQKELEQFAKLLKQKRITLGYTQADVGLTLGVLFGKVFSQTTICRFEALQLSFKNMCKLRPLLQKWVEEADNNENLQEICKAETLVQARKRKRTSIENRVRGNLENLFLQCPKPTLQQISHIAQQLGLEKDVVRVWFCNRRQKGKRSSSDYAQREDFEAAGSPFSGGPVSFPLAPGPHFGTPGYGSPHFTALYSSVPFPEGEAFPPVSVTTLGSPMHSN
UniProt O43474: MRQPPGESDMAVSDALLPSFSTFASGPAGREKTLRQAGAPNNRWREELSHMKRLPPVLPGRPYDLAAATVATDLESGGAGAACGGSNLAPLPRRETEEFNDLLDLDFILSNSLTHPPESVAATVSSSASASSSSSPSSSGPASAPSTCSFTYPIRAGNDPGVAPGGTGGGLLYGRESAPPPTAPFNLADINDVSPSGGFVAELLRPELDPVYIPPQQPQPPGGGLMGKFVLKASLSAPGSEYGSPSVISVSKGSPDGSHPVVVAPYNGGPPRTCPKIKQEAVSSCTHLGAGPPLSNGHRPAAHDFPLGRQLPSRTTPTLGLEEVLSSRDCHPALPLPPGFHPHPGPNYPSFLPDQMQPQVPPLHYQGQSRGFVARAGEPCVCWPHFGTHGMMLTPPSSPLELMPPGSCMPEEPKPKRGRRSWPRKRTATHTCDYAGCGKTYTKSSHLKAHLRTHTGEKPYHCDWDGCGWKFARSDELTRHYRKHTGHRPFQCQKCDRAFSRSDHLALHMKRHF
UniProt P48431: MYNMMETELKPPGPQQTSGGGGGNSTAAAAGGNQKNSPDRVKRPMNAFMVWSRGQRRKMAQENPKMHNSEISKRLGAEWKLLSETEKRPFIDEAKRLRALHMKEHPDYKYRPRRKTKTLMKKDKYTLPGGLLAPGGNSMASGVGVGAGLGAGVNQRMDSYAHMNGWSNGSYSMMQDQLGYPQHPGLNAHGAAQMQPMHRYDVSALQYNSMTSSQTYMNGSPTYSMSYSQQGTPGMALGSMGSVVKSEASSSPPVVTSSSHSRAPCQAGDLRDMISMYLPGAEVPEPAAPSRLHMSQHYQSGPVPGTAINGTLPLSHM

Legend:
Experiment in all cases: co-IP; 500 μg lysate of A549 cells (Hsp27-WT, Hsp27-TriD) or of A549-MKK3E cells (Hsp27-WT, Hsp27-TriA) precipitated with anti-Hsp27 antibody (sc13132) overnight at 4°C and protein G-agarose; beads washed twice with lysis buffer; stemness proteins detected by Western blot
[1] = target: wild type Hsp27 (UniProt P04792)
[2] = target: Hsp27-S15D/S78D/S82D (UniProt P04792)
[3] = target: Hsp27-S15A/S78A/S82A (UniProt P04792)

Measured: binding

Nanog (from UniProt Q9H9S0 1-305)
binds: all assays above

c-Myc (from UniProt P01106 1-454)
binds: all assays above

Oct4 (Octamer-binding transcription factor 4) (from UniProt Q01860 1-360)
binds: all assays above

Klf4 (Kruppel-like factor 4) (from UniProt O43474 1-513)
binds: all assays above

SOX2 (SRY (sex determining region Y)-box 2) (from UniProt P48431 1-317)
binds: all assays above
